The results in this text go back to patent US20020150567A1 (University of California, published 2002).

Amino acid sequences for entries named in this document (tags omitted). A change or cut given only in a name is not applied to a line headed by its entry.
UniProt Q92835: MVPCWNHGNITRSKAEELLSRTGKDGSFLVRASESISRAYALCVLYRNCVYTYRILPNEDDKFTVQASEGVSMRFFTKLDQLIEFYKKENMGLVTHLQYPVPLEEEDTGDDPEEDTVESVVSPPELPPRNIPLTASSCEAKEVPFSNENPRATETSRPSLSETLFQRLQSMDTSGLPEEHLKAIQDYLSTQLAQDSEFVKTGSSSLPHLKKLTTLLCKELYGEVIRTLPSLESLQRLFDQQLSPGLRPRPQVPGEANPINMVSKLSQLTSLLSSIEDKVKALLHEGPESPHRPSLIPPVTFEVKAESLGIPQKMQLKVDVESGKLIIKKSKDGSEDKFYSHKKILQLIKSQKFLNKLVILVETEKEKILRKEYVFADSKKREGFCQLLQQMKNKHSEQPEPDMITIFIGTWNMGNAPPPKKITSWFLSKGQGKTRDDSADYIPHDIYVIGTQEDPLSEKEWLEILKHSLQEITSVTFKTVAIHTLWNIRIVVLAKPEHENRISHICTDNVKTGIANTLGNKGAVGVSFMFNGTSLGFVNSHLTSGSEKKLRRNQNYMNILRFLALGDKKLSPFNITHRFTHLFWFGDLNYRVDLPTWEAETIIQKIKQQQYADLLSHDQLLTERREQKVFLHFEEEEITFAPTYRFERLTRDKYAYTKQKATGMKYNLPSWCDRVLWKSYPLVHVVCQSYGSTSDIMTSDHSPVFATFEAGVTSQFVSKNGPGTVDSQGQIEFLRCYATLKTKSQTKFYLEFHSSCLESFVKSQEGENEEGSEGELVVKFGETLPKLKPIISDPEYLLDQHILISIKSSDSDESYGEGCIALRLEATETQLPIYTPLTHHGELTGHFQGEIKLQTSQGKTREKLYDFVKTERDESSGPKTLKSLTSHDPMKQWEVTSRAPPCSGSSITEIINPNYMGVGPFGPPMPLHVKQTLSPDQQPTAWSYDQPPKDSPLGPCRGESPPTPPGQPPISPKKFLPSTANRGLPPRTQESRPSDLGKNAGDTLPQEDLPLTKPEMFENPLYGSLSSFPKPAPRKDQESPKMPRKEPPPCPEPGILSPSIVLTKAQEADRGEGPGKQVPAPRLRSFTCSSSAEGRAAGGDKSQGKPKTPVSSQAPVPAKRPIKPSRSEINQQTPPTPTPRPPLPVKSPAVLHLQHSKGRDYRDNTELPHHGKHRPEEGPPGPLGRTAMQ

These are yes or no findings as the source states them, for the method shown. In cells and extracts the contact can be indirect. Some results given as binding are weak or reduced against the parent protein; the word gives no strength.

This experiment concerns the target T1, full length GA5Ptase (human) (UniProt Q92835).
T1 sequence: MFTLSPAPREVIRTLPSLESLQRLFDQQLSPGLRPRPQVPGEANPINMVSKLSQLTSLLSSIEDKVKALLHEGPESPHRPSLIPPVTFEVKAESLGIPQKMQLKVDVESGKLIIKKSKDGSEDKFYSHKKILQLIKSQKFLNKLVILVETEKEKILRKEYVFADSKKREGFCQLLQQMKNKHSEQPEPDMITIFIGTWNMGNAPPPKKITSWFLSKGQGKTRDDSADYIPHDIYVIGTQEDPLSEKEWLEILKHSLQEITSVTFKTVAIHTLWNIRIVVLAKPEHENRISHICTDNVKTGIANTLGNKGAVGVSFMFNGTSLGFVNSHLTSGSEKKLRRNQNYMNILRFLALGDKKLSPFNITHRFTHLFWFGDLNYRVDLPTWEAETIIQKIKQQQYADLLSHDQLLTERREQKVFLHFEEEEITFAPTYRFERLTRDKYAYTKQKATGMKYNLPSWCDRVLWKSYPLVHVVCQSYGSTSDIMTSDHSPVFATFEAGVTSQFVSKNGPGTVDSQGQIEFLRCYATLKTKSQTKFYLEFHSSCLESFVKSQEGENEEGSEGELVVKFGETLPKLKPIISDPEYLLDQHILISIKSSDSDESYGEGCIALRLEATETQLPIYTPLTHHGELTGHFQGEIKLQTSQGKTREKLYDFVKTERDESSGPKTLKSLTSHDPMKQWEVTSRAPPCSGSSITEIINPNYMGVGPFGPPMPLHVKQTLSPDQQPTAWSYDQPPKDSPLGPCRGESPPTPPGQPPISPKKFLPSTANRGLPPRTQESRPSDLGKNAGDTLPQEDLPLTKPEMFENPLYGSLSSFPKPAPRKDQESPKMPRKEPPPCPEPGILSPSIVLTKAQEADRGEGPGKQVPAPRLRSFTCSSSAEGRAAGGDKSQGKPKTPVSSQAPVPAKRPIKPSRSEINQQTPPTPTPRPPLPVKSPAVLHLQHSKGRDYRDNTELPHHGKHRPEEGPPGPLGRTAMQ
As to the kind of experiment: co-immunoprecipitation from transfected Cos7 cells (myc 9E10 / HA 12CA5 antibodies).

On to GRB3.3 (from UniProt P62993 1-176), for which the binding entry is on record as “binds”. For “wild type GRB2 (from UniProt P62993 1-217)” the value was “binds”.
